PubChem BioAssay AID2685 (National Center for Advancing Translational Sciences (NCATS), 2010)
The list shows a part of the results. These are further read-outs of the screen, such as a control signal, another cell line or another target. No call is given for them. Most of these compounds were active or inconclusive in the main read-out, so they are no random draw. The note in brackets gives the kind of curve behind each potency; many fits are weak.

Test: qHTS Assay for Lipid Storage Modulators in Drosophila S3 Cells;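 as to cell number change: cells counted by Cell Tracker Red CMTPX staining in the red channel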
Settings: BODIPY lipid droplet fluorescence, 18-24 h; for cell number change: measured here: cell count max response, cells fed with added oleic acid
Outline: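 Drosophila S3 cells got compounds at several concentrations plus oleic acid (400 uM solution). Laser-scanning cytometry with 488 nm excitation read lipid droplets at 500-530 nm and cells at 575-640 nm. Percent activity was relative to 20 uM Triacsin C.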

[1] = measured here: cell number channel AC50, cells fed with added oleic acid
[2] = measured here: lipid fluorescence (Fed channel) AC50, cells fed with added oleic acid

## CCCCC(CC)C(=O)NCCc1ccc(S(N)(=O)=O)cc1 (stereo not drawn)
[1]
  AC50: 0.058 µM [rising, partial curve]
[2]
  AC50: 0.116 µM [falling, full curve, poor fit]

## Clc1cccc(CSc2nnc(-c3c[nH]c4ccccc34)o2)c1
  cell number change: -82.9%
[1]
  AC50: 4.61 µM [falling, partial curve]
[2]
  AC50: 2.31 µM [rising, partial curve]

## COC(=O)C1(C)NC(c2ccc(O)cc2)C2C(=O)N(c3ccc(F)cc3)C(=O)C21 (stereo not drawn)
  cell number change: 15.7%
[2]
  AC50: 29.1 µM [rising, single point]

## COc1ccc(S(=O)(=O)N2CCOCC2)cc1NC(=O)CCNC(=O)c1ccc(Cl)cc1
  cell number change: 78%
[1]
  AC50: 9.2 µM [rising, partial curve]

## CCC(C(=O)NCc1ccccc1OC)n1nc(C)n2c(cc3occc32)c1=O (stereo not drawn)
[1]
  AC50: 0.13 µM [falling, full curve, poor fit]

## O=C(Cc1cccs1)NNC(=S)NCc1ccc(Cl)cc1
  cell number change: -13.7%

## Cc1ccccc1OCC(O)CN1CCN(c2ccc(Cl)cc2)CC1 (stereo not drawn)
  cell number change: -46.7%
[1]
  AC50: 32.6 µM [falling, single point]
[2]
  AC50: 29.1 µM [falling, single point]

## CN1CCC(NC(=O)Cc2c(F)cccc2Cl)CC1
  cell number change: 13.5%
[2]
  AC50: 2.59 µM [rising, partial curve, poor fit]

## CC(NC(=O)CSc1nnc2n1CCCCC2)c1ccccc1Cl (stereo not drawn)
  cell number change: 0.774%

## Cc1ccc(NC(=O)C2C3CCCC2C3c2ccccc2)c(C)c1 (stereo not drawn)
  cell number change: 3.69%
[2]
  AC50: 6.51 µM [falling, single point]

## Cc1ccccc1CN(C)c1ccc(S(=O)(=O)N2CCN(C)CC2)cn1
  cell number change: 0.258%
[2]
  AC50: 2.31 µM [falling, partial curve, poor fit]

## COc1ccc(-c2oc3cccnc3c2-c2ccc(OC)nc2)cc1
  cell number change: 2.27%
[2]
  AC50: 29.1 µM [rising, single point]

## CC1CC(C)(C)CC2(C1)NC(=O)N(CC(=O)Nc1c(F)cccc1F)C2=O (stereo not drawn)
  cell number change: -4.1%
[2]
  AC50: 29.1 µM [rising, single point]

## COc1ccc(/C=N/NC(=O)c2ccc(-n3cnnn3)cc2)cc1
  cell number change: -42%
[1]
  AC50: 32.6 µM [falling, single point]

## CC1CCc2sc3nc(NCc4ccco4)n4ncnc4c3c2C1 (stereo not drawn)
  cell number change: -11.6%
[1]
  AC50: 7.31 µM [falling, single point]
[2]
  AC50: 0.58 µM [rising, single point]

## COC(=O)c1cc(COc2ccc3c(c2)oc(=O)c2ccccc23)c(C)o1
  cell number change: 2.82%
[1]
  AC50: 0.517 µM [rising, partial curve, poor fit]

## CCc1cc2ccc(C)cc2nc1SCC(=O)NNC(=O)c1ccco1
  cell number change: 8.48%
[1]
  AC50: 0.092 µM [falling, full curve, poor fit]
[2]
  AC50: 0.116 µM [falling, full curve]

## O=C(NC1CCCCCC1)C1CCN(c2nc3ccccc3o2)CC1
  cell number change: 30%

## O=C(Nc1cccc([N+](=O)[O-])c1)C1C2/C=C\CCCCC21 (stereo not drawn)
  cell number change: -16.5%
[1]
  AC50: 6.51 µM [falling, single point]

## COc1ccc(-c2cc(C(=O)NC3=NCCS3)c3ccccc3n2)cc1OC
[1]
  AC50: 0.231 µM [rising, full curve]
[2]
  AC50: 0.184 µM [rising, full curve]

## CCC1CN(C(=O)N2CCC(C(=O)Nc3ccccc3OC)CC2)c2ccccc2O1 (stereo not drawn)
  cell number change: -11.8%
[2]
  AC50: 0.411 µM [falling, partial curve, poor fit]

## Cc1cc(C(=O)N/N=C/C=C/c2cccc([N+](=O)[O-])c2)n[nH]1
  cell number change: 19.4%
[1]
  AC50: 0.82 µM [rising, full curve, poor fit]

## COC(=O)c1cccc(S(=O)(=O)N(Cc2ccco2)Cc2cc3cc(OC)ccc3[nH]c2=O)c1
  cell number change: -16.7%

## CC1(C)COC(c2coc3ccccc3c2=O)OC1
  cell number change: 15.9%
[1]
  AC50: 6.51 µM [rising, single point]
[2]
  AC50: 6.51 µM [rising, single point]

## CCOc1ccc(C(=O)NC(=S)Nc2ncccc2C)cc1[N+](=O)[O-]
  cell number change: -2.84%
[2]
  AC50: 29.1 µM [rising, single point]

## O=C(Cn1c2ccccc2c(=O)c2ccccc21)N/N=C/c1cc([N+](=O)[O-])ccc1N1CCCCCC1
  cell number change: 1.49%
[1]
  AC50: 4.61 µM [rising, partial curve]
[2]
  AC50: 5.17 µM [rising, partial curve]

## COc1cc(CN2CCNC(=O)C2CC(=O)NC2CCCC2)cc(OC)c1 (stereo not drawn)
[2]
  AC50: 0.58 µM [falling, single point]

## CCOC(=O)c1ccc(N2C(=O)[C@@H](c3ccccc3)[C@H]2c2ccccc2)cc1
  cell number change: -34%
[1]
  AC50: 16.4 µM [falling, partial curve, poor fit]
[2]
  AC50: 14.6 µM [falling, partial curve]

## CSc1ncccc1C(=O)OCc1c(F)cccc1Cl
  cell number change: 20.3%
[2]
  AC50: 29.1 µM [falling, single point]

## COCCn1c(SCC(=O)Nc2c(C)n(C)n(-c3ccccc3)c2=O)nnc1-c1ccncc1
  cell number change: 13.5%
[1]
  AC50: 6.51 µM [falling, partial curve, poor fit]
[2]
  AC50: 6.51 µM [falling, partial curve, poor fit]

## CCN(CC(=O)Nc1c(Cl)cccc1Cl)C(=O)C1CCN(c2ncnc3sc(C)c(C)c23)CC1
[2]
  AC50: 29.1 µM [falling, single point]

## COc1cc(/C=C2/SC(=Nc3ccc(O)cc3)NC2=O)cc(OC)c1O
  cell number change: -6.51%
[2]
  AC50: 4.11 µM [rising, single point]

## COc1ccc2oc(C(=O)Nc3ccccn3)c(C)c2c1
  cell number change: -2.78%
[2]
  AC50: 35.5 µM [falling, single point]

## Cc1cc(S(=O)(=O)NCCCn2ccnc2)c(C)cc1Cl
  cell number change: 5.44%
[2]
  AC50: 0.82 µM [rising, full curve, poor fit]

## CCC1CCCCN1S(=O)(=O)c1ccc(S(=O)(=O)N(Cc2ccccn2)CC2CCCO2)cc1 (stereo not drawn)
  cell number change: 26.6%
[2]
  AC50: 14.6 µM [rising, partial curve]

## O=C(CCC(=O)c1ccc(Oc2ccccc2)cc1)Nc1ccc(C(=O)O)cc1
  cell number change: 11.3%
[2]
  AC50: 16.4 µM [rising, partial curve]
